The campaign covered roughly 400,000 compounds. About 13,000 (3.2%) were called active. Inconclusive results, whose numbers are uncertain, are shown with a selection of clear calls. Calls follow the shape of the dose curve; as a rule, active = well fitted cell-killing curve with a large enough effect; inconclusive = small, poorly fitted or top-dose-only effect, or effect the other way; inactive = flat fitted curve, though single readings scatter. Where the call is inconclusive, the potency comes from a doubtful curve fit.
test: qHTS assay for MDR1-selective chemotherapeutics: Primary screen using the drug-selected MDR subline cells KB-V1; settings: KB-V1 MDR cells viability, CellTiter-Glo, 72 h; series mostly up to 46.1 µM; also: nearly all actives have a fitted effect of over 60% in size
In short: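 Luminescent ATP read-out (CellTiter-Glo, 10 min) measures survival of drug-selected KB-V1 MDR cells after 72 h, 37 degrees C compound exposure. Medium: phenol-red-free DMEM, 10% FBS. Values from fitted concentration-response curves.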
Potency is read from the fitted curve at half-maximal effect.

SMILES	Potency
Cc1cc(OCC(=O)OCC(=O)N(C)C2CCS(=O)(=O)C2)ccc1Cl (stereo not given)	inactive
CC1=C(C(=O)N(C)C)CC(CC(=O)NCc2cccc3ccccc23)C(=O)N1Cc1ccc(C(C)(C)C)cc1 (stereo not given)	inactive
COc1ccc(NC(=O)c2nnn(Cc3nc(-c4cc(OC)c(OC)c(OC)c4)oc3C)c2C)cc1	inconclusive: 29.1 µM [rising, single point]
CCOC(=O)c1ccc2c(c1)N(CC(=O)Nc1ccc(C)cc1C)C(=O)c1ccccc1S2	inactive
CC1CC(C)CN(c2nc(N(C)c3ccccc3)nc(N)c2[N+](=O)[O-])C1 (stereo not given)	inconclusive: 20.6 µM [cytotoxic, single point]
O=C(COC(=O)C12CC3CC(CC(C3)C1)C2)NCC1CCCO1 (stereo not given)	inconclusive: 14.6 µM [rising, partial curve, poor fit]
Cc1ccc(-c2ccnc(-c3ccc(O)cc3)n2)cc1	inconclusive: 14.6 µM [cytotoxic, partial curve, poor fit]
COc1ccc(S(=O)(=O)N2CCCCCC2)cc1C(=O)NCCOc1ccc(C)cc1	active: 9.2 µM
CCOC(=O)c1ccc(NC(=O)CSc2nc(=O)n(CCN3CCOCC3)c3c2CCC3)cc1	inactive
COc1cccc(-c2cc(C(F)(F)F)n3ncc(S(=O)(=O)c4ccccc4)c3n2)c1	inactive
CCc1ccccc1NS(=O)(=O)c1c(C(=O)N2CCCCCC2)c(C)n(C)c1C	inconclusive: 14.6 µM [cytotoxic, single point]
O=C(CCNS(=O)(=O)c1ccc(Br)cc1)NCc1ccco1	inconclusive: 20.6 µM [rising, single point]
CCOC(=O)/C(C#N)=C/c1c(OCC)n(CC)c2ccccc12	active: 7.31 µM
N#CCCCSc1ncccc1-c1nc2ccccc2[nH]1	active: 13 µM
CCn1ncc(C2=NOC(C(=O)Nc3cnn(C45CC6CC(CC(C6)C4)C5)c3)C2)c1C (stereo not given)	active: 3.26 µM
Cc1ccnc(NC(=O)CN(C)S(=O)(=O)c2cccc3nsnc23)c1	inconclusive: 18.4 µM [cytotoxic, single point]
Cc1ccc(N/N=C(\C#N)C(=O)c2ccsc2)cc1	inconclusive: 29.1 µM [cytotoxic, single point]
O=C(NCc1ccncc1)C1CCN(S(=O)(=O)c2cccc(C(F)(F)F)c2)CC1	inconclusive: 2.91 µM [cytotoxic, partial curve, poor fit]
COc1cc2c(cc1OC)CN(c1ccc3ccccc3n1)CC2	inactive
CCn1cc(C(=O)N2CCN(c3ccc(F)cc3)CC2)c(=O)c2cc(S(=O)(=O)N3CCOCC3)ccc21	inactive
CCc1ccccc1NC(=O)CSc1ncc(S(=O)(=O)c2ccccc2)c(N)n1	inactive
Cc1cccc(N2CCN(C(=O)CCC(=O)N3Cc4ccccc4Oc4ncccc43)CC2)c1C	inconclusive: 1.3 µM [cytotoxic, full curve]
COc1ccccc1-c1nc(C#N)c(NCc2ccc(F)cc2)o1	inactive

In a second layout: entries from further up
CC1=C(C(=O)N(C)C)CC(CC(=O)NCc2cccc3ccccc23)C(=O)N1Cc1ccc(C(C)(C)C)cc1 (stereo not given)
  Potency: inactive
Cc1ccc(-c2ccnc(-c3ccc(O)cc3)n2)cc1
  Potency: inconclusive: 14.6 µM [cytotoxic, partial curve, poor fit]
N#CCCCSc1ncccc1-c1nc2ccccc2[nH]1
  Potency: active: 13 µM

Following part.

SMILES	Potency
CCOC(=O)[C@]12CCC=C1N(Cc1ccc3c(c1)OCO3)C(=O)[C@H](CC(=O)NCc1ccc(C)o1)C2	inconclusive: 6.51 µM [cytotoxic, partial curve]
Cc1sc(NC(=O)C2CCCCC2C(=O)O)c(C(N)=O)c1-c1ccc(C(C)C)cc1 (stereo not given)	inconclusive: 16.4 µM [rising, partial curve, poor fit]
COc1ccccc1/C=C1/C(=O)N(c2ccc([N+](=O)[O-])cc2)N=C1C	inactive
COc1ccc(NC(=O)Nc2ccccc2)cc1S(=O)(=O)N1CCCCC1	inconclusive: 23.1 µM [cytotoxic, single point]
O=C(NCc1ccccn1)c1cc(S(=O)(=O)N2CCN(c3ccccc3)CC2)ccc1Cl	inconclusive: 20.6 µM [cytotoxic, partial curve]
O=C(c1ccco1)N1CCCC(c2nc3c(nnn3Cc3ccc(Cl)cc3Cl)c(=O)[nH]2)C1 (stereo not given)	inconclusive: 3.26 µM [cytotoxic, partial curve, poor fit]
Cc1ccc(Cn2c(=O)c3ccccc3n3c(SCC(=O)N4CCCCC4C)nnc23)cc1 (stereo not given)	active: 8.2 µM
COC(=O)c1ccc(CSc2nnc(-c3ccncc3)n2Cc2ccccc2)o1	inactive
CCCCCCC(=O)N(O)C1CC(=O)N(c2ccc(Br)cc2)C1=O (stereo not given)	inactive
Cn1c(CSc2nc3ccccc3s2)nc2ccccc21	inconclusive: 12.6 µM [cytotoxic, partial curve]
O=C(c1n[nH]c2ccccc12)N1CCN(c2ccc(F)cc2)CC1	inactive
Cn1cccc1/C=N\NC(=O)C1COc2ccc(C(C)(C)C)cc2O1 (stereo not given)	inactive
CSc1ccc(CN2CCC2(C)C(=O)NCc2cccc(C(F)(F)F)c2)cc1 (stereo not given)	inconclusive: 29.1 µM [cytotoxic, single point]
CCc1ncn(CCc2ccccc2OC)c1C(C)C	inconclusive: 14.6 µM [cytotoxic, partial curve, poor fit]
O=C(CCNS(=O)(=O)c1cccs1)N1CCN(c2cccc(Cl)c2)CC1	inconclusive: 23.1 µM [cytotoxic, single point]
Cc1ccc(S(=O)(=O)N2C[C@H]3C(=O)C[C@@H](c4ccccc4)N(S(C)(=O)=O)[C@H]3C[C@H]2c2ccccc2)cc1	inconclusive: 29.1 µM [cytotoxic, single point]
COCC(C)n1c(C)cc(C(=O)COC(=O)c2c(C)nn(-c3ccccc3)c2C)c1C (stereo not given)	inconclusive: 14.6 µM [cytotoxic, partial curve, poor fit]
O=C(CNC(=O)c1ccc2c(c1)S(=O)(=O)N=C1CCCCCN12)Nc1ccc(F)c(F)c1	inconclusive: 11.6 µM [rising, partial curve]
O=C(COC(=O)c1ccc(F)cc1F)Nc1ccc(S(=O)(=O)N2CCOCC2)cc1	inactive
Cc1c(Cl)cccc1NC(=S)NCC1COc2ccccc2O1 (stereo not given)	inactive
CC(C)(C)NC(=O)/C(=C/c1ccccc1F)NC(=O)c1ccc([N+](=O)[O-])cc1	inactive
CCCNc1nc2c(c(=O)[nH]c(=O)n2C)n1Cc1cccc(Br)c1	inconclusive: 29.1 µM [cytotoxic, single point]
